Data on one molecule can be found in article PMC4106786.

Sequences of proteins named here, by UniProt entry; tags and fusion partners are left off. A change or cut given only in a name is not applied to a line headed by its entry. A line that says so, or that is headed by a name, gives the form on record, which may keep a tag or linker.
UniProt Q9H4E5: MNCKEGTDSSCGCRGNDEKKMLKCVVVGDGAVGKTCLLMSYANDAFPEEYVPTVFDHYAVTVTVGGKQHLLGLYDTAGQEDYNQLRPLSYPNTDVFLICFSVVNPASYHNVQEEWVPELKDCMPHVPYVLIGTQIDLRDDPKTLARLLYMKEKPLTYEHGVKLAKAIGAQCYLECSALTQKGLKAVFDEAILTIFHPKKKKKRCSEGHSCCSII
GFP-tagged daRhoJ (Q9H4E5, form named): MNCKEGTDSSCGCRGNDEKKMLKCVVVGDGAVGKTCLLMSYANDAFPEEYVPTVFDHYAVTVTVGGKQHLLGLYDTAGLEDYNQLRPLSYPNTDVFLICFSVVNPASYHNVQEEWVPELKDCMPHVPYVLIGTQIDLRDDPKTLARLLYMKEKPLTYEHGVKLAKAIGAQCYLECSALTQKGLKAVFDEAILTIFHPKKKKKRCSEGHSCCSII

For the experiment, the target named is GFP-tagged daRhoJ (UniProt Q9H4E5). The experiment can be described thus: co-IP; lysates of HUVECs stably expressing GFP or GFP–daRhoJ incubated with GFP-trap A beads for 1 hour at 4°C in Rho-assay lysis buffer (1% NP40, 1% N-octyl-β-D-glucopyranoside, 25 mM HEPES pH 7.5, 30 mM MgCl2, 150 mM NaCl); western blot for β-PIX, GIT1 and GIT2.

These are yes or no findings as the source states them, for the method shown. Binding seen in cells or lysates may run through a third protein. Some binding calls cover weakened binding; strength is not graded here.

B1: GIT2 (protein, UniProt Q14161 1-759)
chain: MSKRLRSSEVCADCSGPDPSWASVNRGTFLCDECCSVHRSLGRHISQVRHLKHTPWPPTLLQMVETLYNNGANSIWEHSLLDPASIMSGRRKANPQDKVHPNKAEFIRAKYQMLAFVHRLPCRDDDSVTAKDLSKQLHSSVRTGNLETCLRLLSLGAQANFFHPEKGNTPLHVASKAGQILQAELLAVYGADPGTQDSSGKTPVDYARQGGHHELAERLVEIQYELTDRLAFYLCGRKPDHKNGQHFIIPQMADSSLDLSELAKAAKKKLQSLSNHLFEELAMDVYDEVDRRETDAVWLATQNHSALVTETTVVPFLPVNPEYSSTRNQGRQKLARFNAHEFATLVIDILSDAKRRQQGSSLSGSKDNVELILKTINNQHSVESQDNDQPDYDSVASDEDTDLETTASKTNRQKSLDSDLSDGPVTVQEFMEVKNALVASEAKIQQLMKVNNNLSDELRIMQKKLQTLQSENSNLRKQATTNVYQVQTGSEYTDTSNHSSLKRRPSARGSRPMSMYETGSGQKPYLPMGEASRPEESRMRLQPFPAHIGRSALVTSSSSLPSFPSTLSWSRDESARRASRLEKQNSTPESDYDNTPNDMEPDGMGSSRKGRQRSMVWPGDGLVPDTAEPHVAPSPTLPSTEDVIRKTEQITKNIQELLRAAQENKHDSYIPCSERIHVAVTEMAALFPKKPKSDMVRTSLRLLTSSAYRLQSECKKTLPGDPGSPTDVQLVTQQVIQCAYDIAKAAKQLVTITTKENNN
In the case of B1, the binding entry is reported as “binds”.
